# PubChem BioAssay AID2551 (National Center for Advancing Translational Sciences (NCATS), 2010)
# By UniProt entry, the sequences of proteins in these tests, tags left out. Where a name states a change or a piece, a line headed by the entry shows the natural chain unless it says otherwise.
# UniProt P51450: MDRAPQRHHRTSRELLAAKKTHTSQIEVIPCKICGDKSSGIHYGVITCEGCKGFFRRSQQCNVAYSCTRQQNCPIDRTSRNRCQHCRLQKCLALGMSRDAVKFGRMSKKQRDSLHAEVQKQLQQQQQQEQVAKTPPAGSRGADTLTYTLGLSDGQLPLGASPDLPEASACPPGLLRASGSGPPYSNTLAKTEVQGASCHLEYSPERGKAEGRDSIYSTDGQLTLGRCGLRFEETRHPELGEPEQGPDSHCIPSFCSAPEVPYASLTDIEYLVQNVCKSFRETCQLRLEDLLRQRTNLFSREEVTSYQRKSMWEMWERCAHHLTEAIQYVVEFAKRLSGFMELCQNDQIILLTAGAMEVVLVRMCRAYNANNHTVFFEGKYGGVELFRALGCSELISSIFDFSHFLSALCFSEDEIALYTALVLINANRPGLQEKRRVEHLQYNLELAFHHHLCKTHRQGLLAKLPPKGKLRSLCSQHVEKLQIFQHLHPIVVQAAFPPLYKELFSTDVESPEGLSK
# Several values for one entry are separate records, joined by “and”; a condition that tells them apart may be missing. Equal values may be shown once. The campaign covered roughly 310,000 compounds. About 17,000 (5.5%) were called active. Inconclusive means that the source gave no clear call. Such entries were picked first, then a sample of the others. Calls follow the shape of the dose curve; as a rule, active = well fitted inhibition curve with a large enough effect; inconclusive = small, poorly fitted or top-dose-only effect, or effect the other way; inactive = no such curve, though single readings can be large or run the other way. Potencies beside an inconclusive call are fits to weak or partial responses and may not hold up.
# Biological target: Nuclear receptor ROR-gamma (Mus musculus) (UniProt P51450)
# Test: qHTS for inhibitors of ROR gamma transcriptional activity; also: nearly all actives have a fitted effect of over 60% in size
# Conditions: Drosophila S2 Gal4-RORgamma UAS-luciferase reporter, 20 h; activity change, negative = inhibition: at 53.6 µM (top of the series)
# Procedure, shortened: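 In this cell-based reporter format, copper sulfate (700 uM final) drives Gal4–ROR gamma fusion expression from a metallothionein promoter in Drosophila Schneider cells; compounds preincubated 1 hr, reporter read after 20 hr at ambient temperature.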
# % is scaled to controls: 0 for no effect and ±100 for the full control effect; potency is read from the fitted curve at half-maximal effect.
Compound,Potency,"activity change, negative = inhibition"
Cc1ccc(N2CC(C(=O)Nc3nccs3)CC2=O)cc1Cl (stereo unspecified),"inconclusive: 8.91 µM [inhibitor, partial curve]",
COc1ccccc1C(=O)N/C(=C\c1ccccc1)C(=O)NCc1ccco1,inactive,
O=C(c1cccc(Br)c1)c1cn(-c2ccccc2)nc1C(=O)c1ccccc1,inactive,
CCC(C(=O)N1CCc2cc(OC)c(OC)cc2C1)c1ccccc1 (stereo unspecified),"inconclusive: 35.5 µM [inhibitor, single point]",
C=CCN(c1ccc(C(=O)NCCSc2ccccc2)cc1)S(C)(=O)=O,"inconclusive: 17.8 µM [activator, partial curve, poor fit]",
S=C(Nc1ccccc1)Nc1cccc(Cl)c1Cl,inactive,
COc1ccc(SCC(Cc2ccccc2)N2CCN(CC(C)C)CCC2=O)cc1 (stereo unspecified),"inconclusive: 35.5 µM [inhibitor, single point]",
Cc1ccc(Cn2c(SC(C)C(N)=O)nc3ccccc3c2=O)cc1 (stereo unspecified),"inconclusive: 17.8 µM [inhibitor, single point]",
CC(C)C(NC(=O)c1ccc(C(C)(C)C)cc1)C(=O)OCC(=O)NC(=O)Cc1ccccc1 (stereo unspecified),"inconclusive: 35.5 µM [activator, single point]",
COc1ccc(N(C(=O)c2cccc([N+](=O)[O-])c2)S(=O)(=O)c2ccc3c(c2)n(C)c(=O)n3C)cc1,"inconclusive: 35.5 µM [inhibitor, single point]",
Cc1ccc(C(=O)NC(=S)Nc2cccc3nsnc23)cc1,inactive,
CC1CCCCC1n1c(=S)[nH]c2ccccc2c1=O (stereo unspecified),"inconclusive: 0.794 µM [inhibitor, single point]",
COc1ccc(C(=O)C2CCCN(C3Cc4ccccc4C3)C2)c(OC)c1 (stereo unspecified),inactive,
Cc1ccc(NC(=O)c2cc(S(=O)(=O)N3CCOCC3)ccc2F)c(C)c1,"inconclusive: 1.26 µM [inhibitor, single point]",
CCOC(=O)CSc1nc(C)cc(C)c1C#N,inactive,
Cc1ccc(NC(=O)Cn2cnc3ccccc32)cc1C,"inconclusive: 3.55 µM [activator, single point]",
Cc1cc(C(=O)Cn2nc(C(=O)O)c3ccccc3c2=O)c(C)n1-c1ccccc1,"inconclusive: 3.98 µM [inhibitor, single point]",
COCCn1c(=O)c(CCc2ccccc2)nc2cnc(N(C)C)nc21,inactive,
COc1ccccc1NC(=O)c1ccccc1NS(C)(=O)=O,"inconclusive: 15.8 µM [inhibitor, single point]",
Nc1nc(Cl)nc2c1ncn2[C@H]1C[C@H](O)[C@@H](CO)O1,"inconclusive: 20 µM [inhibitor, partial curve, poor fit]",
Cc1oc2cc(O)ccc2c(=O)c1-c1cnn(-c2ccccc2)c1,"inconclusive: 10 µM [activator, partial curve]",
CC1CCC(NC(=O)C2CCN(c3c4c(nc5ncnn35)CCC4)CC2)CC1 (stereo unspecified),"inconclusive: 12.6 µM [activator, partial curve]",
S=C(NN=C1CCN(Cc2ccccc2)CC1)NC1CCCCC1,active: 2.24 µM,
N#Cc1ccccc1NC(=O)COC(=O)c1ccc2c(c1)OCCO2,"inconclusive: 17.8 µM [activator, single point]",
O=C(CCc1nnc2ccc(N3CCC4(CC3)OCCO4)nn12)Nc1ccc(F)cc1,inactive,
CCOc1cc(C(=O)NC2CC(C)(C)NC(C)(C)C2)cc(OCC)c1OCC,inactive,

Compound,Potency,"activity change, negative = inhibition"
CCOc1ccc(C(=O)NC(=S)Nc2ccccc2OC)cc1[N+](=O)[O-],active: 7.08 µM,
O=C(NCCC1=CCCCC1)C1CCN(C(=O)c2ccc(Br)cc2)CC1,"inconclusive: 0.0891 µM [activator, full curve, poor fit]",
O=C(COc1ccc(-c2ccccc2)cc1)N/N=C/c1ccccc1Br,inactive,
Cc1cc(-c2n[nH]c(=S)n2/N=C/c2ccc(C)s2)n[nH]1,inactive,
Cc1ccc([N+](=O)[O-])cc1N=C(c1cccc(Br)c1)N1CCOCC1,"inconclusive: 14.1 µM [activator, single point]",
Cc1cc(C(=O)N/N=C\c2ccc(COc3ccc([N+](=O)[O-])cc3)o2)ccc1[N+](=O)[O-],active: 11.2 µM,
CC(=O)N(C)c1ccc(NC(=S)Nc2ccccc2)cc1,inactive,
CCN(CC)CCN1C(=O)Cn2c(C)c(C)c3cccc1c32,"inactive and inconclusive: 1.58 µM [inhibitor, partial curve]",
COCc1nnc(NC(=O)c2ccc(S(=O)(=O)N(CC(C)C)CC(C)C)cc2)o1,active: 0.631 µM,
CCOc1ccc(N)c(SSc2cc(OCC)ccc2N)c1,active: 7.94 µM,
O=C(Nc1cccc(C(=O)Nc2cccc(Br)c2)c1)c1ccccc1,"inconclusive: 10 µM [activator, partial curve]",
COc1ccc(C(C(=O)NC2CCCC2)N(C(=O)c2snc(-c3ccc(F)cc3)c2N)c2ccc(F)cc2)cc1 (stereo unspecified),inactive,
CC(C)CC(NC(=O)C1CCC(=O)N1)C(=O)NC(CC(C)C)C(=O)N1CCCC1C(N)=O (stereo unspecified),inactive,
Cc1nn(-c2ccc(C(=O)O)cc2)c(N)c1-c1ccccc1,active: 10 µM,
CNC(=S)N/N=C(\C)c1ccc(N2CCOCC2)cc1,active: 7.94 µM,
C=C1C(=O)O[C@@H]2[C@@H]1CC/C(C)=C\CC[C@@]1(C)O[C@H]21,active: 3.16 µM,
NC(=O)c1cnn(-c2ccc3ccccc3c2)c1N,"inconclusive: 11.2 µM [activator, partial curve]",
O=C(NNCC(O)COc1ccccc1)c1ccccc1 (stereo unspecified),inactive,
CC1CCCCN1C(=O)CSc1nnc(-c2cccs2)o1 (stereo unspecified),inactive,
O=C1c2ccccc2OCOc2ccccc21,inactive,
Cc1ccc(NC(=O)COc2ccc(/C=C3/SC(=Nc4ccccc4)N(Cc4cccnc4)C3=O)cc2)cc1,inactive,
O=C(NC(C(=O)c1ccccc1)N1CCOCC1)c1ccccc1 (stereo unspecified),"inconclusive: 10 µM [activator, partial curve]",
CN(C)CC(O)COc1ccc(-c2ccc(C#N)cc2)cc1 (stereo unspecified),inactive,
S=C(NCc1ccco1)Nc1ccccn1,active: 1.78 µM,
COCCSc1ccccc1C(=O)Nc1ccccc1C(C)C,inactive,
Cc1cccc(/C=C/C(=O)c2ccc(N3CCOCC3)cc2)c1,"inconclusive: 28.2 µM [inhibitor, single point]",

Compound,Potency,"activity change, negative = inhibition"
Cc1ccccc1C(=O)N1CCN(c2ccc(NC(=O)c3cccnc3Cl)cc2)CC1,inactive,
CCC(C)(C)NC(=O)C(c1ccc(C)o1)N(Cc1ccc2c(c1)OCO2)C(=O)c1snc(C(N)=O)c1N (stereo unspecified),inactive,
CCOc1ccc(C(=O)Nc2cc3c(cc2N2CCCC2)n(CC)c(=O)n3CC)cc1OCC,inactive,
CCOC(=O)c1cccc(NC(=O)CCS(=O)(=O)c2cccs2)c1,"inconclusive: 7.94 µM [activator, partial curve]",
CCc1nnc(NC(=O)c2cc(-c3ccccc3)nn2-c2ccccc2)s1,active: 10 µM,
C=CCc1c(C)[nH]c2c(OC)cccc2c1=S,active: 11.2 µM,
CCCC(=O)NCCc1cc2cc(C)c(C)cc2[nH]c1=O,"inconclusive: 6.31 µM [activator, single point]",
Cn1cccc1/C=C1\Cc2ccccc2C1=O,inactive,
COc1cccc(CNC(=O)c2cccc(Br)c2)c1,"inconclusive: 31.6 µM [activator, single point]",
C[C@H](NC(=O)CNC(=O)[C@@H](NC(=O)[C@H](Cc1ccccc1)NC(=O)CNC(=O)CNC(=O)[C@@H](N)Cc1ccccc1)[C@@H](C)O)C(=O)N[C@@H](CCCN=C(N)N)C(=O)N[C@@H](CCCCN)C(=O)N[C@@H](CO)C(=O)N[C@@H](C)C(=O)N[C@@H](CCCN=C(N)N)C(=O)N[C@@H](CCCCN)C(N)=O,inactive,
CCOC(=O)C1=C(C)Nc2ccccc2N=C1NC(=O)c1cccc(S(=O)(=O)NCc2ccccc2)c1,"inconclusive: 14.1 µM [activator, single point]",
Cc1ccc(C)c(-n2c(-c3ccncc3)n[nH]c2=S)c1,active: 10 µM,
Cc1[nH]c2ccccc2c1N=Nc1ccc(F)cc1,"inconclusive: 12.6 µM [activator, partial curve]",
O=C(NCc1ccccn1)c1ccc2c(c1)N(Cc1ccccc1)CCS2,inactive,
Cc1ccc(OCC(=O)Nn2cnnc2)c(Br)c1,"inconclusive: 0.355 µM [inhibitor, single point]",
CC1C/C(=C/c2ccccn2)C(=O)/C(=C/c2ccccn2)C1 (stereo unspecified),active: 2.82 µM,
COCCNC(=O)c1ccc(S(=O)(=O)N2CCCc3ccccc32)cc1,inactive,
CC(=O)N1CCc2cc(S(=O)(=O)NC(C)c3ccccc3)ccc21 (stereo unspecified),"inconclusive: 12.6 µM [activator, partial curve]",
O=C(COc1ccc(Br)cc1)NNC(=S)NCc1ccccc1,"inconclusive: 4.47 µM [inhibitor, partial curve, poor fit]",
O=C(O)C1C(C(=O)Nc2ccc(Cl)cc2)C2C=CC1C21CC1 (stereo unspecified),inactive,
Cc1ccc(C)c(N2CCN(C(=O)CCCn3c(=S)[nH]c4cc5c(cc4c3=O)OCO5)CC2)c1,,inactive: -3.33% [at 0.365 µM]
NNC(=O)Cn1nc(-c2ccccc2)c2ccccc2c1=O,inactive,
COCCn1c(=O)[nH]c2cc(C(=O)N3CCN(c4ccc(Cl)cc4)CC3)ccc2c1=O,"inconclusive: 17.8 µM [activator, partial curve, poor fit]",
CCCC(=O)Nc1sc2c(c1C#N)CCCC2,"inconclusive: 5.01 µM [activator, partial curve]",

# Molecules from the list above with a COOH group, in the order listed:
Compound,Potency,"activity change, negative = inhibition"
Cc1cc(C(=O)Cn2nc(C(=O)O)c3ccccc3c2=O)c(C)n1-c1ccccc1,"inconclusive: 3.98 µM [inhibitor, single point]",
Cc1nn(-c2ccc(C(=O)O)cc2)c(N)c1-c1ccccc1,active: 10 µM,
O=C(O)C1C(C(=O)Nc2ccc(Cl)cc2)C2C=CC1C21CC1 (stereo unspecified),inactive,

# Some of the entries so far, tab-delimited:
Compound	Potency	activity change, negative = inhibition
C=CCc1c(C)[nH]c2c(OC)cccc2c1=S	active: 11.2 µM	
CCCC(=O)NCCc1cc2cc(C)c(C)cc2[nH]c1=O	inconclusive: 6.31 µM [activator, single point]	
Cn1cccc1/C=C1\Cc2ccccc2C1=O	inactive	
